Cell number change and AC50 data for 54 compounds are collected here from PubChem BioAssay AID2685 (National Center for Advancing Translational Sciences (NCATS), 2010).

By AC50 is commonly meant the concentration giving half of the maximal activity seen. Read a high AC50 as weaker potency.

Some of the results follow. Shown are side measurements of this screen, not its main read-out; they come without a call. Compounds called inactive in the main read-out are mostly missing here. The note in brackets gives the kind of curve behind each potency; many fits are weak.

The experiment in a line: qHTS Assay for Lipid Storage Modulators in Drosophila S3 Cells.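 On Cell number change: cells counted by Cell Tracker Red CMTPX staining in the red channel.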 The conditions noted are these: BODIPY lipid droplet fluorescence, 18-24 h; for cell number change: measured here: cell count max response, cells fed with added oleic acid. In short, it runs like this:
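Drosophila S3 cells got compounds at several concentrations plus oleic acid (400 uM solution). Laser-scanning cytometry with 488 nm excitation read lipid droplets at 500-530 nm and cells at 575-640 nm. Percent activity was relative to 20 uM Triacsin C.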
On the technique in general: In qHTS, concentration-response curves come from the screen itself.

Setting [1] is: measured here: lipid fluorescence (Fed channel) AC50, cells fed with added oleic acid.
The mark [2] stands for this setting: measured here: cell number channel AC50, cells fed with added oleic acid.

For the compound `CCOC(=O)N1CCN(C(=O)/C(=C/c2ccc(N(C)C)cc2)NC(=O)c2ccccc2)CC1`, the cell number change was 4.23%. Also, under setting [1], the AC50 was 0.00461 µM [rising, full curve, poor fit].

For the compound `CC(C)(C)NC(=O)NC(=O)COC(=O)C1CC(=O)N(Cc2ccccc2)C1` (centres undefined), the cell number change is 46.4%. Also, under setting [2], the AC50 is 29.1 µM [rising, single point].

Take `O=C(Nc1nnc(-c2ccco2)o1)c1cccc(N2C(=O)CCC2=O)c1`: under setting [2], the AC50 is 0.366 µM [falling, partial curve, poor fit].

For the compound `COc1ccc(-c2nnc(SC(C)C(=O)Nc3nccs3)n2-c2ccccc2)cc1OC` (centres undefined), the cell number change is -11.6%. For the same compound, under setting [1], the AC50 was 1.64 µM [rising, partial curve].

Turning to `CCn1cc(C(=O)N2CCN(c3ccc(C(C)=O)cc3)CC2)c2cc(OC)c(OC)cc2c1=O`, the cell number change worked out at 125%. Moreover, under setting [2], the AC50 was 18.4 µM [rising, partial curve]. The AC50 under setting [1] is 3.26 µM [rising, single point].

`N#C/C(=C\c1ccccc1)c1ccccn1`: the AC50 is, setting by setting: under setting [2], 0.00461 µM [rising, full curve, poor fit]; under setting [1], 0.00461 µM [rising, full curve, poor fit].

As to `CSc1nncn1/N=C/c1ccccc1F`, the cell number change was -41.2%. Further, the half-maximal activity concentration (AC50) under setting [2] was 4.11 µM [falling, full curve]. Moreover, the AC50 under setting [1] is 14.6 µM [falling, partial curve].

For the compound `O=C(COC(=O)c1ccc(OC(F)F)cc1)Nc1cccc(S(=O)(=O)NC2=NCCC2)c1`, the cell number change is 35%. The half-maximal activity concentration (AC50) under setting [2] was 8.2 µM [rising, partial curve]. Moreover, under setting [1], the AC50 was 10.3 µM [rising, partial curve].

With `COc1cc(OC)c(OC)cc1/C=N/NC(=O)c1ccc(=O)n(C)c1`, the cell number change turned out to be 9.12%. The AC50 under setting [1] was 20.6 µM [rising, partial curve].

Consider `CCOC(=O)c1cccc(NC(=O)CSc2nnc(COc3ccccc3C)o2)c1`, for which the cell number change was found to be 2.49%. The AC50 under setting [2] was 0.092 µM [rising, full curve, poor fit]. The AC50 under setting [1] is 2.06 µM [rising, single point].

`Cc1ncsc1C(=O)NCc1ccc(N2CCCC2=O)cc1`: under setting [1], the AC50 was 3.66 µM [falling, full curve].

As to `O=C(O)c1ccc(/C=N/n2c(C3CCCCC3)n[nH]c2=S)cc1`, the cell number change was 23.9%. Moreover, the concentration at half-maximal activity (AC50) under setting [1] was 9.2 µM [rising, partial curve].

Turning to `O=C(NCc1ccco1)C1CCN(S(=O)(=O)c2ccccc2C(F)(F)F)CC1`, the cell number change was -21%. The AC50 under setting [1] was 0.058 µM [falling, full curve, poor fit].

As to `O=C(c1cccs1)N1N=C(c2ccccc2)CC1c1ccc(O)cc1` (centres undefined), the AC50 under setting [2] was 0.461 µM [rising, full curve, poor fit].

As to `Cc1cc(C)n(-c2ccc(NC(=O)C3CCCCN3C(=O)c3ccoc3C)cc2)n1` (centres undefined), the cell number change is -2.59%. The half-maximal activity concentration (AC50) under setting [1] is 0.58 µM [rising, single point].

On to `O=C(NN1CCCCC1)c1ccccc1`, for which the cell number change was -6.59%.

For the compound `CCc1ccc2oc(C(=O)NCc3ccc(S(N)(=O)=O)cc3)c(C)c2c1`, the cell number change is -21%. The AC50 under setting [2] is 0.58 µM [falling, single point]. Under setting [1], the AC50 is 29.1 µM [rising, single point].

For `O=C(CNC(=O)c1ccc(Cl)cc1)Nc1ccccc1C(F)(F)F`, the cell number change was -18.4%. In addition, the AC50 under setting [1] was 1.46 µM [falling, partial curve].

For `COc1cccc(NC(=O)CSc2nnc(-c3ccoc3C)n2-c2ccccc2)c1`, the cell number change was found to be 103%. For the same compound, the AC50 under setting [2] is 23.1 µM [rising, partial curve].

Turning to `Cc1ccc(C2CC(=O)C=C(NCC(C)C)C2)cc1` (centres undefined), the cell number change was 11.5%. For the same compound, under setting [1], the AC50 was 5.8 µM [rising, partial curve, poor fit].

As for `COC(=O)c1c(C)oc2ccc(NS(=O)(=O)c3cc(OC)ccc3OC)cc12`, the AC50 by setting is: under setting [2], 1.84 µM [rising, partial curve]; under setting [1], 1.84 µM [rising, partial curve].

`CCCC(=O)Nc1cc2c3c(c1)C(C)C(=O)N3CCC2` (centres undefined): the cell number change is 13.7%. In addition, under setting [2], the AC50 is 0.731 µM [rising, partial curve, poor fit].

With `CCn1cc(CN2CCN(CC(C)(C)C)C(CCO)C2)c2ccccc21` (centres undefined), the cell number change is 23.8%. In addition, the AC50 under setting [1] was 6.51 µM [rising, single point].

On to `CN(C)CCCn1c(=O)n(CCc2ccccc2)c(=O)c2c3c(sc21)CCCCC3`, for which the cell number change was -12.7%. The AC50 under setting [2] is 0.651 µM [falling, full curve, poor fit]. Further, the AC50 under setting [1] is 1.64 µM [falling, partial curve].

For the compound `Cn1cccc1C(=O)NC(=O)COC(=O)CCNS(=O)(=O)c1cccc(C(F)(F)F)c1`, the cell number change is -0.0684%. Also, the AC50 under setting [1] is 0.92 µM [falling, full curve, poor fit].

As to `CCOc1ccc(C(=O)NCC(=O)N2CCN(c3ccc(C(F)(F)F)cn3)CC2)cc1`, the cell number change was -7.52%. Further, under setting [1], the AC50 was 0.517 µM [rising, full curve].

On to `CCn1c(N2CCN(C(=S)Nc3ccc(OC)cc3)CC2)nc2ccccc21`, for which the cell number change was -39.6%. For the same compound, the AC50 under setting [2] is 29.1 µM [falling, single point]. Moreover, the AC50 under setting [1] was 32.6 µM [falling, single point].

In the case of `COc1ccc(C(C)NC(=O)C23CC4CC(CC(C4)C2)C3)cc1` (centres undefined), the cell number change was -0.985%. Moreover, the AC50 under setting [1] is 13 µM [falling, partial curve, poor fit].

Take `C/C(Cc1ccccc1)=N\NC(=O)CNC(=O)c1cccc(Br)c1`: the cell number change was -7.37%.

For the compound `O=C(CN(Cc1ccccc1)C(=O)c1csnn1)NCc1ccccc1`, the cell number change is -6.97%. Moreover, the AC50 under setting [2] was 6.51 µM [falling, single point]. Under setting [1], the AC50 is 7.31 µM [falling, single point].

Take `COc1ccc(OCC(=O)NS(=O)(=O)c2ccccc2)cc1`: the cell number change came out at 15.5%. Under setting [1], the AC50 is 0.13 µM [rising, partial curve, poor fit].

`CC(C)Cc1nc(Nc2ccc(S(=O)(=O)N3CCCC3)cc2)c2nnn(Cc3ccccc3)c2n1`: the cell number change is -18.3%. Under setting [1], the AC50 is 18.4 µM [falling, single point].

For the compound `CCC(C)n1c(=O)c2sccc2n2c(CCCC(=O)N3CCC(C(N)=O)CC3)nnc12` (centres undefined), the cell number change was -40.7%. Also, the AC50 under setting [2] is 18.4 µM [falling, partial curve]. For the same compound, the AC50 under setting [1] is 0.146 µM [falling, full curve, poor fit].

Turning to `Cc1cc(CNC(=O)Cn2cc([N+](=O)[O-])cn2)c2ccccc2n1`, the cell number change is -19.5%. Under setting [1], the AC50 is 6.51 µM [falling, single point].

On to `O=S(=O)(Nc1cccc(F)c1)c1cccc2nsnc12`, for which the cell number change was -14.2%.

Take `COC(=O)c1cc(Cl)c(NC(=O)c2ccco2)cc1OC`: the cell number change was -21.9%. Besides, the AC50 under setting [1] was 6.51 µM [rising, partial curve].

`CCn1c(COc2cccc(C)c2)nnc1SCC(=O)N1CCCC1`: the cell number change was 73.1%. Moreover, under setting [2], the AC50 was 18.4 µM [rising, single point].

Consider `O=C1CCCN1CC(CN1CCOCC1)Sc1nc2ccccc2c(=O)n1-c1ccccc1` (centres undefined), for which the cell number change is -9.55%. Moreover, under setting [2], the AC50 is 1.3 µM [rising, partial curve].

With `Cn1c(=O)n(CC(N)=O)c(=O)c2c1nc1n2CCCN1Cc1ccccc1`, the cell number change was determined as 15.5%. Moreover, under setting [1], the AC50 is 25.9 µM [rising, single point].

Take `COc1ccc(NC2=NCC(Cc3ccc(Br)cc3)S2)cc1` (centres undefined): the cell number change is -14%. Moreover, the AC50 under setting [2] is 0.259 µM [rising, full curve, poor fit]. The AC50 under setting [1] was 1.84 µM [rising, partial curve].

Consider `Cc1c(NC(=O)CCCN2C(=O)c3cccc4cccc(c34)C2=O)c(=O)n(-c2ccccc2)n1C`, for which the cell number change turned out to be 4.33%. In addition, the AC50 under setting [2] was 0.13 µM [rising, partial curve, poor fit].

Regarding `Cc1nn(-c2ccccc2)c(N2CCCC2)c1/C=C1\N=C(c2ccc(F)cc2)OC1=O`, the cell number change came out at 31.2%. Under setting [2], the AC50 is 1.3 µM [rising, full curve, poor fit].

Consider `CC1=C(C(=O)OCC(C)C)C(c2cc3c(cc2Br)OCO3)NC(=O)N1C` (centres undefined), for which the cell number change was found to be 153%. In addition, the AC50 under setting [2] was 9.2 µM [rising, partial curve]. The AC50 under setting [1] was 9.2 µM [rising, partial curve].

As for `COC(=O)Cn1c(=N)n(CCN2CCCCC2)c2ccccc21`, the cell number change amounted to 34.9%. Moreover, the AC50 under setting [2] was 18.4 µM [rising, single point].

For the compound `CCCC(C)NC(=O)Cn1c(=O)c2c(ncn2CCC(C)C)n(Cc2ccccc2)c1=O` (centres undefined), the cell number change worked out at 4.05%. For the same compound, the AC50 under setting [1] is 6.51 µM [rising, single point].

For the compound `Cc1nc2ccccc2nc(C)c1=NOCc1cccc(Cl)c1`, the cell number change is -0.275%. Also, the AC50 under setting [1] is 1.64 µM [rising, full curve, poor fit].

In the case of `C=CCC(C(=O)Oc1c(C(C)(C)C)cc(C)cc1C(C)(C)C)c1ccccc1` (centres undefined), the cell number change is 7.5%. The AC50 under setting [1] was 0.92 µM [rising, full curve].

With `CCc1cccc2c(C(=O)COC(=O)c3nn(C)c(=O)c4ccccc34)c[nH]c12`, the cell number change was -72.1%. Further, under setting [2], the AC50 is 8.2 µM [falling, partial curve]. Further, the AC50 under setting [1] is 6.51 µM [falling, partial curve].

On to `O=C(N/N=C\c1cccc(Br)c1)c1ccccc1-n1cccc1`, for which the cell number change was 23.3%. The AC50 under setting [2] was 1.03 µM [rising, partial curve, poor fit]. The AC50 under setting [1] was 2.06 µM [rising, partial curve].

For `CCN(CC)c1ccc(NC(=O)c2ccc(Br)o2)c(C)c1`, under setting [1], the AC50 is 6.51 µM [rising, single point].

As for `Cc1ccc(CNC(=O)CCc2nnc3ccc(N4CCC5(CC4)OCCO5)nn23)cc1`, the cell number change was -18.3%. Under setting [1], the AC50 is 29.1 µM [falling, single point].

For `O=C(O)CC(c1cccc([N+](=O)[O-])c1)N1Cc2ccccc2C1=O` (centres undefined), the cell number change was -12.3%. The AC50 under setting [1] was 11.6 µM [falling, partial curve, poor fit].

Consider `O=C(Nc1ccccc1OC(F)F)c1ccc(F)cc1`, for which the cell number change was -141%. Also, the AC50 under setting [2] is 29.1 µM [falling, single point]. Moreover, the AC50 under setting [1] was 0.651 µM [falling, single point].

`O=C(CCC(=O)N1CCN(c2cccc(Cl)c2)CC1)c1cccs1`: the AC50 under setting [2] is 3.66 µM [rising, single point].
